Measured data: PubChem BioAssay AID686943 (Drosophila RNAi Screening Center, 2013)
Assay: 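Knockdowns that increase or decrease active ERK after insulin receptor stimulation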 (primary screen). Cell system: Drosophila S2R+ haemocyte-like cells expressing YFP-tagged ERK (Rolled). Knock-down reagent: long dsRNA against Drosophila genes. Challenge: insulin stimulation versus unstimulated cells; dose and duration not given. Measured: 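Per-plate z-scores of phospho-ERK immunostaining normalised to YFP-tagged ERK, measured with and without insulin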. Reading the numbers: replicate 1, z-score of dpERK with insulin and replicate 2, z-score of dpERK with insulin: higher = more active ERK per ERK-YFP after insulin; replicate 1, z-score of dpERK under basal conditions: higher = more basal active ERK per ERK-YFP; replicate 1, z-score of ERK-YFP with insulin: higher = more YFP-tagged ERK signal.
In all, the deposit lists about 23,000 reagents; this is an unselected part of those that have a named target and a result. 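Extra replicates exist only for a retested subset of genes; insulin dose and duration not given; both raised and lowered dpERK matter.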 A plus sign joins genes that one reagent is predicted to hit. Not stated in the record: the amount of reagent, the time to read-out.

| predicted target | dsRNA | replicate 1, z-score of dpERK with insulin | replicate 2, z-score of dpERK with insulin | replicate 1, z-score of dpERK under basal conditions | replicate 1, z-score of ERK-YFP with insulin |
| --- | --- | --- | --- | --- | --- |
| CR33294 | DRSC22950 | 0.38 | -0.26 | -0.05 | -0.54 |
| CG43339 | DRSC02466 | 0.35 | -0.13 | 0.84 | 0.23 |
| HnRNP-K | DRSC07585 | -0.1 | 0.67 | -0.97 | 1.2 |
| HnRNP-K | DRSC22734 | 0.65 | 0.94 | -2.31 | 0.81 |
| Sf3b1 | DRSC00535 | -0.66 | 5.13 | -1.83 | -6.27 |
| CG14352 | DRSC00382 | 0.37 | 0.66 | -0.06 | -0.96 |
| Snx16 | DRSC06984 | 1.49 | 0.47 | -1.78 | 0.23 |
| meru | DRSC09400 | 0.48 | -0.38 | 0.29 | -0.68 |
| meru | DRSC09899 | 0.51 | 1.45 | 0.03 | 0.27 |
| meru | DRSC10215 | 0.1 | -0.94 | 0.23 | 0.45 |
| CG31897 | DRSC01020 | -0.43 | 0.12 | 0.25 | -0.09 |
| mei-41 | DRSC20350 | 0.38 | -0.34 | -0.29 | -0.05 |
| Fkbp59 | DRSC03323 | -1.15 | -1.02 | -0.67 | 0.28 |
| Or33c | DRSC03388 | 1.4 | 0.19 | -1.97 | -0.24 |
| GATAe | DRSC14223 | 2.59 | 1.37 | -0.52 | 0.27 |
| CG11964 | DRSC14447 | 0.11 | 0.81 | -0.4 | -1.18 |
| wash | DRSC06302 | 0.11 | 0.2 | 0.18 | 0.09 |
| alt | DRSC15315 | 0.22 | 0.39 | -0.66 | -0.9 |
| CG14180 (retired record) | DRSC10179 | -0.87 | -2.12 | -1.8 | -0.93 |
| Dcr-1 | DRSC15646 | -0.26 | 0.44 | -0.06 | -0.36 |
| cmet | DRSC03511 | 0.34 | 1.39 | 1.3 | -0.56 |
| CG8907 | DRSC16453 | 0.1 | -0.17 | 0.3 | 0.13 |
| kat-60L1 | DRSC12184 | -0.4 | -0.43 | 0.45 | -0.06 |
| CG4712 | DRSC06882 | -0.02 | 0.49 | -1.28 | 0.09 |
| Pp2A-29B | DRSC03400 | 0.16 | -0.32 | 0.92 | 0.72 |
| Crz | DRSC16615 | 0.09 | 1.31 | 0 | 0.84 |
| wrapper | DRSC04723 | 0.14 | -3.03 | 0.19 | 0.12 |
| CG9231 | DRSC11054 | 0.05 | -0.46 | 0.05 | 0.29 |
| Ibf1 | DRSC16419 | 0.58 | 1.02 | 0.66 | 1.04 |
| Glt | DRSC03333 | 0.58 | 0.09 | -0.64 | -0.7 |
| Trf4 | DRSC00729 | 0.89 | 0.06 | 0.06 | -0.65 |
| CG42319 | DRSC06645 | 0.11 | -0.29 | -0.04 | 0.49 |
| CG42319 | DRSC06646 | 0.01 | 0.48 | -0.18 | -0.19 |
| CG42319 | DRSC22426 | 0.35 | 0.24 | -1.09 | -1.13 |
| CG17560 | DRSC15242 | 0.35 | 0.24 | -0.17 | 0.25 |
| NimA | DRSC01353 | 0.38 | 1.08 | 1.05 | 1.38 |
| NimA | DRSC22170 | 0.57 | 0.43 | 0.84 | -0.65 |
| mars | DRSC06656 | -0.75 | -0.4 | 0.07 | 0.28 |
| CG13884 | DRSC08354 | 0.14 | 0.44 | -0.05 | 0.38 |
| CG34299 | DRSC13974 | 0.27 | -0.64 | 0.22 | 0.69 |
| Tat | DRSC19602 | 0.16 | 0.54 | 0.83 | -0.28 |
| CG14324 | DRSC14803 | -0.13 | 0.48 | -0.16 | -0.65 |
| Syn1 + CG7370 | DRSC22768 | -0.56 | 0.62 | 1 | 1.1 |
| CG4363 | DRSC04465 | 0.93 | -0.63 | -0.95 | 0.05 |
| pav | DRSC08730 | 0.13 | -0.79 | 1.46 | -0.61 |
| Mctp | DRSC06510 | -0.76 | -0.65 | -0.16 | 0.42 |
| Mctp | DRSC22896 | 0.3 | 0.29 | 0.52 | 0.05 |
| NPFR | DRSC12173 | -1.04 | -0.39 | -0.5 | 0.26 |
| sNPF-R | DRSC10836 | -0.01 | 1.28 | 1.07 | 0.29 |
| CG14246 | DRSC14741 | 1.27 | -0.87 | -1.11 | -0.78 |
| CG33722 + CG18749 | DRSC12674 | -0.06 | 0.79 | 0.44 | 0 |
| CG33722 + CG18749 | DRSC15386 | 0.41 | -1.15 | -0.31 | 0.02 |
| Vha100-1 | DRSC14148 | 1.38 | -0.46 | -0.19 | 0.63 |
| X11L | DRSC19958 | 0.97 | 0 | 1.06 | 2.26 |
| X11L | DRSC19959 | 0.66 | -0.13 | -0.35 | 0.13 |
| List | DRSC06520 | 0.46 | 0.1 | -0.87 | 0.61 |
| CG18540 | DRSC06767 | -0.28 | -1.15 | -0.98 | 0.74 |
